Experimental data as given in patent US20200392471.
For some of these results: No signal at the amounts used counts as a negative. For some of these results: Where a protein sequence is shown, tags need not be part of it. For some of these results: Construct, isoform or probe ends are uncertain for at least one entry.

Amino acid sequences for entries named in this document (tags omitted).
UniProt P19821, whole entry: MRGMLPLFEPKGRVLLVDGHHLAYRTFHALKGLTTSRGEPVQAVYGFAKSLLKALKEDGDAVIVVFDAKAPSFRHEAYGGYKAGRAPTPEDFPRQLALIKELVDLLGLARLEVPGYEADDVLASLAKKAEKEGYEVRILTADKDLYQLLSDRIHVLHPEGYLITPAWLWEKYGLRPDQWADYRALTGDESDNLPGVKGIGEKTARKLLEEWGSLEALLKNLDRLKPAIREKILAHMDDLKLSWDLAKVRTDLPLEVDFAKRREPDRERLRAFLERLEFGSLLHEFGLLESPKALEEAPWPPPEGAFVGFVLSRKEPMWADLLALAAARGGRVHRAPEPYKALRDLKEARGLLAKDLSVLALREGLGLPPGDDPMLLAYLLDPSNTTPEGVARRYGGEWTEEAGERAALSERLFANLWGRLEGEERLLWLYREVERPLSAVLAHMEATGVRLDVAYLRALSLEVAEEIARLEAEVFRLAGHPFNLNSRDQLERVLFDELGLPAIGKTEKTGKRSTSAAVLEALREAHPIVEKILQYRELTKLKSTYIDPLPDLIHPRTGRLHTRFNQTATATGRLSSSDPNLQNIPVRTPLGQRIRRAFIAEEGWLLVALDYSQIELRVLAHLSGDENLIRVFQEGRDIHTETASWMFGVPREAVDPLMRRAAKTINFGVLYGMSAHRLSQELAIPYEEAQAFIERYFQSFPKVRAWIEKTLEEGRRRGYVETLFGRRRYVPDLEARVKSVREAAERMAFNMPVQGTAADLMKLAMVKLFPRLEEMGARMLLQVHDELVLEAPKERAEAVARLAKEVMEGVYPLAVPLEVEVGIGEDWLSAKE

Experiments:
[1] = molecular target: T1, Afu Uracil-DNA Glycosylase (UniProt O28007); experiment: activity assay; conditions: deoxyuridine at loop position 12; UDG reactivates blocked Taq, Phusion, Q5, Vent and Deep Vent; purified recombinant protein; protein details: New England Biolabs M0279S; folded or branched DNA
T1 sequence (looked up, limits assumed): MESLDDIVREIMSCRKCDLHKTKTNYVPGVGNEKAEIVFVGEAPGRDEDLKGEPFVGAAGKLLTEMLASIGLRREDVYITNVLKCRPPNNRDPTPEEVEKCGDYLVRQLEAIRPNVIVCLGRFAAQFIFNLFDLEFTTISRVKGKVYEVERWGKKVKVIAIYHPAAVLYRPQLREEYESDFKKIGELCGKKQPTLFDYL

Deep Vent DNA polymerase = molecular target: T2, Deep Vent DNA polymerase (UniProt Q51334); experiment: inhibition of the protein; conditions: deoxyuridine at loop position 12; 80 nM; hairpin probe extension at 60 or 65 C; 5 mM MgCl2, 50 mM KCl, pH 8.0; efficiency variable; purified recombinant …; protein details: New England Biolabs M0258S; folded or branched DNA
T2 sequence (looked up, limits assumed): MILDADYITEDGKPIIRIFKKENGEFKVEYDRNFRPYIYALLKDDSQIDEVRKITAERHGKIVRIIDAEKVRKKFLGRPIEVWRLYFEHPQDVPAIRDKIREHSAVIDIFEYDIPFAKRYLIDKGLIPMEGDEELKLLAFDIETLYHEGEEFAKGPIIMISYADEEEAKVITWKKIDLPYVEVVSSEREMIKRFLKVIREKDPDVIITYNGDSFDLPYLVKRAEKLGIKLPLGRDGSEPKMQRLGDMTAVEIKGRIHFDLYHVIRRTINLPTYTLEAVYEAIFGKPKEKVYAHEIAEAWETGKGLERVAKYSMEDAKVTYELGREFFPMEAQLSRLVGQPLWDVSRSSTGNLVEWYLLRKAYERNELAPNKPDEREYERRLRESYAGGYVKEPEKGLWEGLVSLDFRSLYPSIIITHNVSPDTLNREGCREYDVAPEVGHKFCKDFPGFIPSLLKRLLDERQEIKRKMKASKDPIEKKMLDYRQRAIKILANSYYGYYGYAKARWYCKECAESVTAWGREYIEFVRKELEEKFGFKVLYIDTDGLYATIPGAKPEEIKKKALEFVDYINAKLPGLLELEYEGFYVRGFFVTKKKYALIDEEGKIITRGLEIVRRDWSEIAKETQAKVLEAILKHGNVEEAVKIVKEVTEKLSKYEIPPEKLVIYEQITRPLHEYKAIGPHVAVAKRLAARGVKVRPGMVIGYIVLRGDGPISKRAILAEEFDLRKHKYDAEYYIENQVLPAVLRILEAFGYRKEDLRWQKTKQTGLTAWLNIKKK

Vent DNA polymerase = molecular target: T3, Vent DNA polymerase (UniProt P30317); experiment: inhibition of the protein; conditions: deoxyuridine at loop position 12; 80 nM; hairpin probe extension at 60 or 65 C; 5 mM MgCl2, 50 mM KCl, pH 8.0; efficiency variable; purified recombinant …; protein details: New England Biolabs M0254S; folded or branched DNA
T3 sequence (looked up, limits assumed): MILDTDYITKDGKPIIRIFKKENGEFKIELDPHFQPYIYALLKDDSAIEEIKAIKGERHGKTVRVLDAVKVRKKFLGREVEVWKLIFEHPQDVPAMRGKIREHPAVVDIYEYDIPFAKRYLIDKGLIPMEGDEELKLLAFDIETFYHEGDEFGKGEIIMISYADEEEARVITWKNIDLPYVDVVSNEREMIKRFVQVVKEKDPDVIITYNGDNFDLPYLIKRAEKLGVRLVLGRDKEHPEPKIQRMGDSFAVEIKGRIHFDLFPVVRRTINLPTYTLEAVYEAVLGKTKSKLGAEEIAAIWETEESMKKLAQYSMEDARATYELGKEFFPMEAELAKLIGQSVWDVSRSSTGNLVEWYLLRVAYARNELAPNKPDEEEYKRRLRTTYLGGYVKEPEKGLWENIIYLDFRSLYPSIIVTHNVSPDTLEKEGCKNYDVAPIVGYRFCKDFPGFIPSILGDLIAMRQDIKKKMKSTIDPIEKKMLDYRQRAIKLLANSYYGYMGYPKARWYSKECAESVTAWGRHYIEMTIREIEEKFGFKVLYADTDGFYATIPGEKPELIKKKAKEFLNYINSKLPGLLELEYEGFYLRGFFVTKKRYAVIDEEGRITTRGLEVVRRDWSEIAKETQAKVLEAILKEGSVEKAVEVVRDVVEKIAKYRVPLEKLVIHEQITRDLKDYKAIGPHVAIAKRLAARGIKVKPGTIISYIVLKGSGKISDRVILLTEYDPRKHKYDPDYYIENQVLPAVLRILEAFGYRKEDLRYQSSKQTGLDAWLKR

Phusion DNA polymerase = experiment: inhibition of the protein; conditions: deoxyuridine at loop position 12; 80 nM; hairpin probe extension at 60 or 65 C; 5 mM MgCl2, 50 mM KCl, pH 8.0; efficiency variable; purified recombinant …; protein details: New England Biolabs M0530S; folded or branched DNA
Q5 DNA polymerase = experiment: inhibition of the protein; conditions: deoxyuridine at loop position 12; 80 nM; hairpin probe extension at 60 or 65 C; 5 mM MgCl2, 50 mM KCl, pH 8.0; efficiency variable; purified recombinant …; protein details: New England Biolabs M0491S; folded or branched DNA
Taq DNA polymerase = Taq DNA polymerase (UniProt P19821); experiment: inhibition of the protein; conditions: deoxyuridine at loop position 12; 80 nM aptamer blocks PCR and hairpin probe extension; 5 mM MgCl2, 50 mM KCl, pH 8.0; purified recombinant protein; protein details: GenScript E00007; folded or branched DNA
[2] = molecular target: T4, Bst DNA polymerase large fragment (UniProt P52026); experiment: inhibition of the protein; conditions: deoxyuridine at loop position 12; not inactivated at 80 nM; hairpin probe extension at 60 or 65 C; purified recombinant protein; protein details: large fragment, New England Biolabs M0275S; folded or branched DNA
T4 sequence (looked up, limits assumed): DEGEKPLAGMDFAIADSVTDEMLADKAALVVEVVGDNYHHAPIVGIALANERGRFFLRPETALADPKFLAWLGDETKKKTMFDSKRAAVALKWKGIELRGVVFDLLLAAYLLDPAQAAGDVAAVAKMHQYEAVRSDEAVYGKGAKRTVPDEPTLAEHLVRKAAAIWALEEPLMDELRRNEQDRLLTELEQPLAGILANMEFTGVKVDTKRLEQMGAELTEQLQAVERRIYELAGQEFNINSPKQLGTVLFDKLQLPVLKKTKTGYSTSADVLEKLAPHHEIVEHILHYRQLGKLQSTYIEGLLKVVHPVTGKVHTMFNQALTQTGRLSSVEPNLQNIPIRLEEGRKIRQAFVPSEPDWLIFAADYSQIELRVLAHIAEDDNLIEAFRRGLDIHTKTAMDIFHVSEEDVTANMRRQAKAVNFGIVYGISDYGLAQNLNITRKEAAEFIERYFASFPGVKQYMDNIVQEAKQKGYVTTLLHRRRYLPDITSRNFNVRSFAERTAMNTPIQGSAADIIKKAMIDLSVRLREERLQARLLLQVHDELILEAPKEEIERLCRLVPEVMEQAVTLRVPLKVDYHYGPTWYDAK

For “TGCGCGATTTAAAGCGATTCTTAGCGTTUTCGCTTTAAATCGCGCAT [aptamer SEQ ID NO:12]”, the “activity on this sequence” value [1] was “active”, the “functional effect of the aptamer” value (Deep Vent DNA polymerase) was “active” and the “functional effect of the aptamer” value (Vent DNA polymerase) was “active”. For the same sequence, the “functional effect of the aptamer” value (Phusion DNA polymerase) was “active”, the “functional effect of the aptamer” value (Q5 DNA polymerase) was “active” and the “functional effect of the aptamer” value (Taq DNA polymerase) was “active”. The “functional effect of the aptamer” value [2] was “not active”.
